Source: US20180298101A1
No constants are given. Whether binding was seen depends on the method and setting. In cells and extracts the contact can be indirect. Some entries that bind do so weakly or less than the wild type. Where a sequence is shown, tags or fusion partners need not be part of it.

By UniProt entry, the sequences of proteins in these tests, tags left out.
UniProt P52332: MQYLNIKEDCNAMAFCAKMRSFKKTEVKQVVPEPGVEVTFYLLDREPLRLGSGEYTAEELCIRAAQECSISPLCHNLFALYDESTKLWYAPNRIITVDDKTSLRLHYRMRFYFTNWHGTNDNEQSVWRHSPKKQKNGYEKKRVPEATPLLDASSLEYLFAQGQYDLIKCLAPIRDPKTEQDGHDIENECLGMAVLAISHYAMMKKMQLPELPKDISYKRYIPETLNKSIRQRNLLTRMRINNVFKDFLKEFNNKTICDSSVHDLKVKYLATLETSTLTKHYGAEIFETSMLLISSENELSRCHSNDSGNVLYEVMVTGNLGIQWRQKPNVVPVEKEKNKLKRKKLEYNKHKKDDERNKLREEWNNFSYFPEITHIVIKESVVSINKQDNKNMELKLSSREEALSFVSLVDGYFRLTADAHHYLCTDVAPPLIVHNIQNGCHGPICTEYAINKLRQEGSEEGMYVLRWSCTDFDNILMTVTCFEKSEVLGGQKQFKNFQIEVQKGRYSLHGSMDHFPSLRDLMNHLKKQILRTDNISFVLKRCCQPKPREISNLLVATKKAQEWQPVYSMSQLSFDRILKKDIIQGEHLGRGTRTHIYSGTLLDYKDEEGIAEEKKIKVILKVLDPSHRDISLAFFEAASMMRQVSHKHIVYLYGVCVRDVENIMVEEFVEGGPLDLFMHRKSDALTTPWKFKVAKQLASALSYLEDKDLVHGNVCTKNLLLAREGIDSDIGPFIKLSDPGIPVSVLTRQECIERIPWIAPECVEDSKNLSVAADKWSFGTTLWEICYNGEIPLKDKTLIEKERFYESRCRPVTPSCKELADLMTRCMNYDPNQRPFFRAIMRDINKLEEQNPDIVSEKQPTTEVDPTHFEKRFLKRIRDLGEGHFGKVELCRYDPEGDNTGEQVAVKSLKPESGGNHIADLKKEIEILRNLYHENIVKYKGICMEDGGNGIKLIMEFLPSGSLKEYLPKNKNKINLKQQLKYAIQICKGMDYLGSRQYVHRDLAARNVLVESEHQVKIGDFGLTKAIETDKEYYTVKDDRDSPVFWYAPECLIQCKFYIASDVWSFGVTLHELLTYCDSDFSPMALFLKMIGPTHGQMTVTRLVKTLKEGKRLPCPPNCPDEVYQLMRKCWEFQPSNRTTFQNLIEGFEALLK

Experiments:
[1] = target: Flag-tagged mouse JAK1 (full-length) (mouse) (UniProt P52332); experiment: co-immunoprecipitation from 293T cells
[2] = target: Flag-tagged mouse JAK1 (full-length) (mouse) (UniProt P52332); experiment: co-immunoprecipitation from 293T cells with anti-CIS or anti-JAK1 antibodies, anti-FLAG blot

B1: Flag-tagged mouse CIS (protein, not shown: small tags and cut ends)
chain: MVLCVQGSCPLLAVEQIGRRPLWAQSLELPGPAMQPLPTGAFPEEVTEETPVQAENEPKVLDPEGDLLCIAKTFSYLRESGWYWGSITASEARQHLQKMPEGTFLVRDSTHPSYLFTLSVKTTRGPTNVRIEYADSSFRLDSNCLSRPRILAFPDVVSLVQHYVASCAADTRSDSPDPAPTPALPMSKQDAPSDSVLPIPVATAVHLKLVQPFVRRSSARSLQHLCRLVINRLVADVDCLPLPRRMADYLRQYPFQL
**Q.** How did the binding [1] turn out when B1 was run?
**A.** Its binding is “binds”.

**Q.** And the binding [2]?
**A.** Its binding is “binds”.
